For this assay, the target named is T1, human OX40-FC-biotin (human OX40 recombinant protein with Fc tag, Acro Biosystems OX40-H5255, labeled with biotin) (human) (UniProt P43489).
T1 sequence (labeled with biotin (site not stated), looked up): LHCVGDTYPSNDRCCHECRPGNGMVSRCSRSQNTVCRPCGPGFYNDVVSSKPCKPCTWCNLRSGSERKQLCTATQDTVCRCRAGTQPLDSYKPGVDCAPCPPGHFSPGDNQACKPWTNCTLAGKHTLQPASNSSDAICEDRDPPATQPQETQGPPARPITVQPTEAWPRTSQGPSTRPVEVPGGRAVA
Briefly: capture ELISA, biotin-OX40-Fc.

Results are given in words; binding and its absence hold for the method and conditions named. Some entries that bind do so weakly or less than the wild type. Tags and fused reporters may be left off the sequences shown.

B1: humanized antibody hu4B5-V3 (antibody, human IgG1, V domains shown)
VH: QVQLQESGPGLVKPSETLSLTCTVSGFSLTSYGLHWIRQPPGKGLEWIGVIWSGGSTDYNAAFISRVTISKEDSKSQVSLKLSSVTAADTAVYYCAREEYDVWGQGTTVTVSS
VL: DIQMTQSPSSLSASVGDRVTITCRASQDISNYLNWYQQKPGKVPKLLIYYTSRLHSGVPSRFSGSGSGTDFTLTISSLQPEDVATYYCQQGNTLPWTFGGGTKVEIK
For the molecule B1, the binding entry is reported as “binds”.

B2: humanized antibody hu4B5-V20 (antibody, human IgG1, V domains shown)
VH: QVQLQESGPGLVKPSETLSLTCTVSGFSLTSYGLHWIRQPPGKGLEWIGVIWSGGSTDYNAAFISRVTISKEDSKSQVSLKLSSVTAADTAVYYCAREEYDVWGQGTTVTVSS
VL: DIQMTQSPSSLSASVGDRVTITCRASQDISNYLNWYQQKPGGVPKLLIYYTSRLHSGVPSRFSGSGSGTDYTLTISSLQQEDVATYYCQQGNTLPWTFGGGTKVEIK
Regarding B2, the binding result is reported as “binds”.

B3: humanized antibody hu4B5-V9 (antibody, human IgG1, V domains shown)
VH: QVQLQESGPGLVKPSETLSLTCTVSGFSLTSYGLHWIRQPPGKGLEWIGVIWSGGSTDYNAAFISRVTISKEDSKSQVSLKLSSVTAADTAVYYCAREEYDVWGQGTTVTVSS
VL: DIQMTQSPSSLSASVGDRVTITCRASQDISNYLNWYQQKPGKVPKLLIYYTSRLHSGVPSRFSGSGSGTDYTLTISSLQPEDVATYYCQQGNTLPWTFGGGTKVEIK
B3: the binding result is listed as “binds”.

B4: humanized antibody hu4B5-V5 (antibody, human IgG1, V domains shown)
VH: QVQLKESGPGLVKPSETLSLTCTVSGFSLTSYGLHWFRQPPGKGLEWLGVIWSGGSTDYNAAFISRLTISKEDSKSQVSLKLSSVTAADTAVYYCAREEYDVWGQGTTVTVSS
VL: DIQMTQSPSSLSASVGDRVTITCRASQDISNYLNWYQQKPGKVPKLLIYYTSRLHSGVPSRFSGSGSGTDFTLTISSLQPEDVATYYCQQGNTLPWTFGGGTKVEIK
As to B4, the binding result is on record as “binds”.

B5: humanized antibody hu4B5-V11 (antibody, human IgG1, V domains shown)
VH: QVQLKESGPGLVKPSETLSLTCTVSGFSLTSYGLHWFRQPPGKGLEWLGVIWSGGSTDYNAAFISRLTISKEDSKSQVSLKLSSVTAADTAVYYCAREEYDVWGQGTTVTVSS
VL: DIQMTQSPSSLSASVGDRVTITCRASQDISNYLNWYQQKPGKVPKLLIYYTSRLHSGVPSRFSGSGSGTDYTLTISSLQPEDVATYYCQQGNTLPWTFGGGTKVEIK
Turning to B5, the binding entry is recorded as “binds”.

B6: humanized antibody hu4B5-V17 (antibody, human IgG1, V domains shown)
VH: QVQLQESGPGLVKPSETLSLTCTVSGFSLTSYGLHWIRQPPGKGLEWIGVIWSGGSTDYNAAFISRVTISKEDSKSQVSLKLSSVTAADTAVYYCAREEYDVWGQGTTVTVSS
VL: DIQMTQSPSSLSASVGDRVTITCRASQDISNYLNWYQQKPGGVPKLLIYYTSRLHSGVPSRFSGSGSGTDYTLTISSLQPEDVATYYCQQGNTLPWTFGGGTKVEIK
For the molecule B6, the binding result is given as “binds”.

B7: humanized antibody hu4B5-V13 (antibody, human IgG1, V domains shown)
VH: QVQLKESGPGLVKPSETLSLTCTVSGFSLTSYGLHWFRQPPGKGLEWLGVIWSGGSTDYNAAFISRLTISKEDSKSQVSLKLSSVTAADTAVYYCAREEYDVWGQGTTVTVSS
VL: DIQMTQSPSSLSASVGDRVTITCRASQDISNYLNWYQQKPGGVPKLLIYYTSRLHSGVPSRFSGSGSGTDYTLTISSLQQEDVATYYCQQGNTLPWTFGGGTKVEIK
On to B7, for which the binding result was “binds”.

B8: humanized antibody hu4B5-V24 (antibody, human IgG1, V domains shown)
VH: QVQLQESGPGLVKPSETLSLTCTVSGFSLTSYGLHWIRQPPGKGLEWIGVIWSGGSTDYNAAFISRVTISKEDSKSQVSLKLSSVTAADTAVYYCAREEYDVWGQGTTVTVSS
VL: DIQMTQSPSSLSASVGDRVTITCRASQDISNYLNWYQQKPGGTVKLLIYYTSRLHSGVPSRFSGSGSGTDYTLTISSLQPEDVATYFCQQGNTLPWTFGGGTKVEIK
Regarding B8, the binding result was “binds”.

B9: humanized antibody hu4B5-V12 (antibody, human IgG1, V domains shown)
VH: QVQLKESGPGLVKPSETLSLTCTVSGFSLTSYGLHWFRQPPGKGLEWLGVIWSGGSTDYNAAFISRLTISKEDSKSQVSLKLSSVTAADTAVYYCAREEYDVWGQGTTVTVSS
VL: DIQMTQSPSSLSASVGDRVTITCRASQDISNYLNWYQQKPGGVPKLLIYYTSRLHSGVPSRFSGSGSGTDYTLTISSLQPEDVATYYCQQGNTLPWTFGGGTKVEIK
In the case of B9, the binding result is on record as “binds”.

B10: humanized antibody hu4B5-V14 (antibody, human IgG1, V domains shown)
VH: QVQLKESGPGLVKPSETLSLTCTVSGFSLTSYGLHWFRQPPGKGLEWLGVIWSGGSTDYNAAFISRLTISKEDSKSQVSLKLSSVTAADTAVYYCAREEYDVWGQGTTVTVSS
VL: DIQMTQSPSSLSASVGDRVTITCRASQDISNYLNWYQQKPGGTVKLLIYYTSRLHSGVPSRFSGSGSGTDYTLTISSLQPEDVATYFCQQGNTLPWTFGGGTKVEIK
notes: hu4B5 VH4 + hu4B5 VL4; human IgG1 / human Kappa constant regions
Turning to B10, the binding result was “binds”.

These data come from patent US20210355229A1 (JIANGSU HENGRUI MEDICINE, published 2021).
